Earlier results, collected in patent US20220079143A1, “OIL-IN-WATER TYPE PEST REPELLENT COMPOSITION” (Kao Corporation, priority 2018, published 2022).
Some of these results come from one statement about several compounds together.

Tested on: Aedes albopictus
Conditions: minimum effective amount published by the manufacturer; can also be measured as concentration giving average repellent effect duration of 2 hours or more

## CCC(C)OC(=O)N1CCCCC1CCO (stereo not shown) [Icaridin, 1-methylpropyl-2-(2-hydroxyethyl)-1-piperidine carboxylate]
  Effective amount of the existing pest repellent: ≥ 4 % by mass
